In article PMC9118923:
Results are given in words; binding and its absence hold for the method and conditions named. Binding seen in cells or lysates may run through a third protein. Some results given as binding are weak or reduced against the parent protein; the word gives no strength.

The chains behind the UniProt entries cited, without tags or fusion partners. Where a name states a change or a piece, a line headed by the entry shows the natural chain unless it says otherwise. Residues count along the entry.
UniProt Q15172: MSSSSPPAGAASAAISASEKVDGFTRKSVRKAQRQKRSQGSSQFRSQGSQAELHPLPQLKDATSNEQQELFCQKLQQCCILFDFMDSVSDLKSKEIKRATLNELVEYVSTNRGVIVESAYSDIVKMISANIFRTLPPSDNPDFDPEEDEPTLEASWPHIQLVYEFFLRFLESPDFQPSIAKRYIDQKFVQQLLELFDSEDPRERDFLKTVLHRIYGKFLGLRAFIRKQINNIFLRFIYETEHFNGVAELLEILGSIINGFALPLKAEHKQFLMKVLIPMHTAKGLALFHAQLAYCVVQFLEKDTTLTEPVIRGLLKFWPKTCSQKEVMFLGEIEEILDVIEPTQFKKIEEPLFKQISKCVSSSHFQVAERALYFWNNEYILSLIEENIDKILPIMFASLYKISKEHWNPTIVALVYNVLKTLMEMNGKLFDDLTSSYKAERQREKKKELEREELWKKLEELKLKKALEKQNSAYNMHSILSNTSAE
UniProt P67775: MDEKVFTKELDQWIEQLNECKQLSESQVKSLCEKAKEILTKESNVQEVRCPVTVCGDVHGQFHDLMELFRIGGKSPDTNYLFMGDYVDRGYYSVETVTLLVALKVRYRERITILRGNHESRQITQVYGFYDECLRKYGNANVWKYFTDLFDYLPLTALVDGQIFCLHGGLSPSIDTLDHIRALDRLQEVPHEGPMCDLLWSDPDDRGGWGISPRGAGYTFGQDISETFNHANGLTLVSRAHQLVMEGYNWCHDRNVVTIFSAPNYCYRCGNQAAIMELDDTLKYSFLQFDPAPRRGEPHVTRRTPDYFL
UniProt Q14738: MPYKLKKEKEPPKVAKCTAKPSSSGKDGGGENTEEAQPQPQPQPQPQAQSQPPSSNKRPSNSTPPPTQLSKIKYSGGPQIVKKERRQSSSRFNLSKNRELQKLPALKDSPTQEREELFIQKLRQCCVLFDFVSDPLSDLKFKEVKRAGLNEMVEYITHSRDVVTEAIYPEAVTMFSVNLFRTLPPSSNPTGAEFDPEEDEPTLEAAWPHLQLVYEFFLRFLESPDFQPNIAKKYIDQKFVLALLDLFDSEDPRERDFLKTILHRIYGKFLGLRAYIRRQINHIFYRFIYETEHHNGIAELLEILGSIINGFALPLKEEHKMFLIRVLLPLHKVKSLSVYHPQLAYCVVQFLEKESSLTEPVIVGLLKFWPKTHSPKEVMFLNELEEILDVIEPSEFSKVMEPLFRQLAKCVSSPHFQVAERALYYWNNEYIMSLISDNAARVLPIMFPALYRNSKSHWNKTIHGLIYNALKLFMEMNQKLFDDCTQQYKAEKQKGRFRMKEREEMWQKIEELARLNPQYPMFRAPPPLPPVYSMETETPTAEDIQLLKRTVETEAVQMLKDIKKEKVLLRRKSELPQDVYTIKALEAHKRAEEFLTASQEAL
UniProt P35869, residues 11-848: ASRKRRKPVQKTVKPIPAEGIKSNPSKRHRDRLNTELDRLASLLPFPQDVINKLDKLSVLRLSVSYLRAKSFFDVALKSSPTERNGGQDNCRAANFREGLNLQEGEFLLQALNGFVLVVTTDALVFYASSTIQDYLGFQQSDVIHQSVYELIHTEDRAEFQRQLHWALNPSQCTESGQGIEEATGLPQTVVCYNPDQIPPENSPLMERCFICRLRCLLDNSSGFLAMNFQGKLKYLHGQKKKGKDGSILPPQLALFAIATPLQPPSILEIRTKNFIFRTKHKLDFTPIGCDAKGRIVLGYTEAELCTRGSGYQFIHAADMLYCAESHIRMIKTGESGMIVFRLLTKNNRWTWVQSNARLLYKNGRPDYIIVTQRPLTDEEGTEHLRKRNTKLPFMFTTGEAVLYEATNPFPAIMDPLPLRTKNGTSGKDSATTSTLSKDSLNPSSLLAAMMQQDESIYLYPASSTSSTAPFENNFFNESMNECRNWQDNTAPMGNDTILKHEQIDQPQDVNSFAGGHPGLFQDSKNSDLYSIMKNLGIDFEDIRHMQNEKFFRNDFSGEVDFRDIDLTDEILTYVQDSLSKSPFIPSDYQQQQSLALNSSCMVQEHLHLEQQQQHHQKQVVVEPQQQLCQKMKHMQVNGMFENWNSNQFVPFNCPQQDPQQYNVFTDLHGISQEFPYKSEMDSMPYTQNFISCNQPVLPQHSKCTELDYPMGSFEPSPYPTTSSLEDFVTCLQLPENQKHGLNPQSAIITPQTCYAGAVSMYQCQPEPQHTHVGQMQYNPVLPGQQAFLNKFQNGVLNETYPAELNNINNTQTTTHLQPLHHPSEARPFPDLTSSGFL
UniProt P08183: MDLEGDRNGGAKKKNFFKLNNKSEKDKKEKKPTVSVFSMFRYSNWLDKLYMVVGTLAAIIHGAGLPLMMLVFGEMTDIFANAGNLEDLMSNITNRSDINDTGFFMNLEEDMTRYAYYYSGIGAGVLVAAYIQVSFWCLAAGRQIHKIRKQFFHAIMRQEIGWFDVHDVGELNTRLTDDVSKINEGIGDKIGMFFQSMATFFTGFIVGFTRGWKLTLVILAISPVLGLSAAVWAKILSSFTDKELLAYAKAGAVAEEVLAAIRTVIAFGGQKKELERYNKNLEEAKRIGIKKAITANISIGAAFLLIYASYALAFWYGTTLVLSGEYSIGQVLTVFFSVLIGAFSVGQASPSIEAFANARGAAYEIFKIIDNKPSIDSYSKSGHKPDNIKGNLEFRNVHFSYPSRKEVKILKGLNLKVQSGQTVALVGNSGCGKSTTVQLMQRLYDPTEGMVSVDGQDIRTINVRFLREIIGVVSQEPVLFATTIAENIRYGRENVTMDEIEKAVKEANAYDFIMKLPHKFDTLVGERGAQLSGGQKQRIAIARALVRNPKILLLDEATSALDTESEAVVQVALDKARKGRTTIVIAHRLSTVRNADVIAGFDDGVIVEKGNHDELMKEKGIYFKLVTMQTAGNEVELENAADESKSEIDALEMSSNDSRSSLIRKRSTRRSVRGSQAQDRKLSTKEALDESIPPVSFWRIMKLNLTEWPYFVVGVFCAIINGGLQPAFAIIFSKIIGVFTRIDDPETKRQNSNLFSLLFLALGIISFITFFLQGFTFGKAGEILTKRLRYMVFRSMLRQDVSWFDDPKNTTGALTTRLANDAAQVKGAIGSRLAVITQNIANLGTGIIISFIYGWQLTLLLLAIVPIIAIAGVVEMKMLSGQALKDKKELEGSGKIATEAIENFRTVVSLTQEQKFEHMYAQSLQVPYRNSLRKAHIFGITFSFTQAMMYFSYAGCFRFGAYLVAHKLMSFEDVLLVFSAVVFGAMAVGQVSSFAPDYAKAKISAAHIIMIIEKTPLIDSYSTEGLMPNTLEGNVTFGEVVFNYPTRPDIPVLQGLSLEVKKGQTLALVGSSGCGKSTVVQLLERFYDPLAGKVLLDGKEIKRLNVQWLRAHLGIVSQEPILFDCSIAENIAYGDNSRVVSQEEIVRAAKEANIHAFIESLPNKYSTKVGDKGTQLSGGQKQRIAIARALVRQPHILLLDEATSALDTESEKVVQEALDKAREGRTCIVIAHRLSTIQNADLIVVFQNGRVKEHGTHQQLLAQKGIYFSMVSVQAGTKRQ

Experiments:
[1] = molecular target: PP2A B56α subunit (human (endogenous in HepaRG)) (UniProt Q15172); assay: co-IP; endogenous proteins in HepaRG cell lysate (RIPA buffer with protease and phosphatase inhibitors), about 3 mg supernatant with antibody against PP2A Cα or B56α overnight at 4 °C, protein G-Sepharose 2 h, immunoblot; cells treated with 20 μM BaP
[2] = molecular target: PP2A Cα subunit (human (endogenous in HepaRG)) (UniProt P67775); assay: as above
[3] = molecular target: PP2A B56δ subunit (human (endogenous in HepG2/ADR)) (UniProt Q14738); assay: co-IP; HepG2/ADR cell lysate (RIPA buffer), about 3 mg supernatant with antibodies against MDR1 and B56δ overnight at 4 °C, protein G-Sepharose, immunoblot

binding [1]	binding [2]	binding [3]	Substance
binds	binds	–	aryl hydrocarbon receptor (from UniProt P35869 11-848)
–	–	binds	MDR1 (encoded by multi-drug resistance gene 1), human (from UniProt P08183 1-1280)
